Experimental data: PubChem BioAssay AID1259308 (NCATS, 2017)
The deposit covers about 59,000 reagents; this is a part drawn at random. Of all reagents, about 1,510 (2.6%) are marked active. 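Calls use total luciferase alone and ignore viability, so some active siRNAs may act by altering cell number.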 A number with no mark means an inactive call. The numbers tell different reagents against one gene apart. Not all columns of the deposit are shown.

- Assay: 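Genes whose loss raises luciferase production in HEK293 cells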 (primary screen)
- Cell system: human HEK293 embryonic kidney cells stably expressing firefly luciferase (HEK-CMV-Luc2-Hygro)
- Knock-down reagent: single siRNA against human genes, 0.8 pmol siRNA per well
- Time to read-out: 72 h
- Read-out: 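Luciferase light (ONE-Glo) measured on one replicate plate set and viability (CellTiter-Glo) on the other, scaled to a negative control siRNA, with robust z-scores and luciferase per cell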
- Direction: total luciferase, z-score and total luciferase, % of control: higher = more reporter protein produced
- Active means: 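An siRNA counts as active if its total luciferase robust z-score exceeds 3; genes with two or more such siRNAs out of three were retested with fresh siRNAs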
- Calls: active = raised luciferase; inactive = no rise

no.	Target gene	reagent no.	total luciferase, z-score	total luciferase, % of control
1	LTF	1	0.292	87.7
2	LTF	2	-1.54	51.3
3	LTF	3	-0.0425	81
4	PSEN2	1	1.37	109
5	PSEN2	2	-0.102	79.9
6	PSEN2	3	0.852	98.8
7	COX8C	1	-1.01	61.8
8	COX8C	2	-0.141	79.1
9	COX8C	3	-0.441	73.1
10	ERLIN1	1	0.196	85.8
11	ERLIN1	2	0.09	83.7
12	ERLIN1	3	-0.524	71.5
13	RPE	1	0.703	95.9
14	RPE	2	-0.708	67.8
15	RPE	3	0.149	84.9
16	TRMO	1	0.658	95
17	TRMO	2	0.358	89
18	TRMO	3	1.66	115
19	KLF4	1	0.934	100
20	KLF4	2	0.0568	83
21	KLF4	3	0.363	89.1
22	IFNA2	1	-0.514	71.7
23	IFNA2	2	-0.332	75.3
24	IFNA2	3	-0.426	73.4

4 of these entries, reformatted:
| Target gene | reagent no. | total luciferase, z-score | total luciferase, % of control |
| --- | --- | --- | --- |
| KLF4 | 2 | 0.0568 | 83 |
| KLF4 | 3 | 0.363 | 89.1 |
| IFNA2 | 1 | -0.514 | 71.7 |
| IFNA2 | 2 | -0.332 | 75.3 |
